Results taken from patent publication US8895746B2 (University of Central Florida Research Foundation, Inc., priority 2009, dated 2014).
Some entries share one result that the patent states for a list of compounds.

By UniProt entry, the sequences of proteins in these tests, tags left out.
UniProt P42227, whole entry: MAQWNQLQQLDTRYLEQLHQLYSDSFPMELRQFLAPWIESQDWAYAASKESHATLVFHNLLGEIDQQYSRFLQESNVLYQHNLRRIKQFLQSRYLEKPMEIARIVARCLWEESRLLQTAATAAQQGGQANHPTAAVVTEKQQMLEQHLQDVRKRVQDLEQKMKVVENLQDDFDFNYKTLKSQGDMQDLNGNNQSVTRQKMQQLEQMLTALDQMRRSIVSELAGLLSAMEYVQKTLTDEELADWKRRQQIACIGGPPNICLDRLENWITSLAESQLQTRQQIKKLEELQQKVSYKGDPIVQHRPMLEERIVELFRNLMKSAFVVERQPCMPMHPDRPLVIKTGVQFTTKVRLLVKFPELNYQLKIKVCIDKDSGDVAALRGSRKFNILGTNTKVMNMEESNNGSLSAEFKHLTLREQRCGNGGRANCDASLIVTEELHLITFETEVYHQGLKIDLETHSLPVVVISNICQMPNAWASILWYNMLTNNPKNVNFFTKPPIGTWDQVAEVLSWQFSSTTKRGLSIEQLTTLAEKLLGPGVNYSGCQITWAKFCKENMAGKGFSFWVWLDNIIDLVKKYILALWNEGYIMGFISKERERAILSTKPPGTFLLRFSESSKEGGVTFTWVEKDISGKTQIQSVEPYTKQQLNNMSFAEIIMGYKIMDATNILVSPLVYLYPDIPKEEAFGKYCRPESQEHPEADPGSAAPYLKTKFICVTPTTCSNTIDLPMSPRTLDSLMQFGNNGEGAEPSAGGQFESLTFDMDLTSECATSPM

Assays:
Stat3 [1] = assay: Intracellular Stat3 activation: EMSA of nuclear extracts from treated NIH3T3/v-Src, Panc-1 and MDA-MB-231 cells; assay type: cell-based, mouse, human
Protocol: Nuclear extract preparations and electrophoretic mobility shift assay (EMSA) were carried out as previously described (28,33). The ^32P-labeled oligonucleotide probes used were hSIE (high affinity sis-inducible element from the c-fos gene, m67 variant, 5′[…]; SEQ ID NO:5) that binds Stat1 and Stat3 (34) and MGFe (mammary gland factor element from the bovine β-casein gene promoter, 5′-[…]; SEQ ID NO:6) for Stat1 and Stat5 binding (35,36). Except where indicated, nuclear extracts were pre-incubated with compound for 30 min at room temperature prior to incubation with the radiolabeled probe for 30 min at 30° C. before subjecting to EMSA analysis. Bands corresponding to DNA-binding activities were scanned and quantified for each concentration of compound using ImageQuant and plotted as percent of control (vehicle) against concentration of compound, from which the IC50 values were derived, as previously reported (37).
Stat3 is constitutively activated in a variety of malignant cells, including human breast and pancreatic cancer cells (9, 10, 20).
Twenty-four hours after treatment, nuclear extracts were prepared from cells and subjected to Stat3 DNA-binding assay in vitro using the radiolabeled hSIE probe and analyzed by EMSA.

Stat3 [2] = target: Stat3 (Mus musculus, UniProt P42227); assay: Stat3 DNA-binding assay in vitro (EMSA, hSIE probe), nuclear extracts of NIH3T3/v-Src; assay type: biochemical; set-up: endogenous in cells; host or cells: NIH3T3/v-Src mouse fibroblasts (nuclear extract); conditions: ratio of IC50 values
Protocol: Nuclear extract preparations and electrophoretic mobility shift assay (EMSA) were carried out as previously described (28,33). […] Except where indicated, nuclear extracts were pre-incubated with compound for 30 min at room temperature prior to incubation with the radiolabeled probe for 30 min at 30° C. before subjecting to EMSA analysis.

SMILES: Cc1ccc(S(=O)(=O)N(C)CC(=O)N(Cc2ccc(C3CCN(c4ccc(C#N)cc4)CC3)cc2)c2ccc(C(=O)O)c(O)c2)cc1 [S3I-201.2096]
- enhancement of intracellular Stat3-inhibitory activity versus lead S3I-201 (Stat3 [1]): 2-3 fold
- fold improvement over the activity of the lead agent S3I-201 (Stat3 [2]): 2-3 fold
